This is an account of results in the supplement of paper PMC12819154, “High-throughput peptide-centric local stability assay extends protein–ligand identification to membrane proteins, tissues and bacteria” (Nature Structural & Molecular Biology, 2025).

By UniProt entry, the sequences of proteins in these tests, tags left out. Where a name states a change or a piece, a line headed by the entry shows the natural chain unless it says otherwise.
UniProt Q9H840: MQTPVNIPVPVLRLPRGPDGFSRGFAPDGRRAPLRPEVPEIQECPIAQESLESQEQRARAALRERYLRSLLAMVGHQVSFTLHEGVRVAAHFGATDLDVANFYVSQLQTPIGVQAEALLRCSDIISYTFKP
UniProt Q9H9F9, whole entry: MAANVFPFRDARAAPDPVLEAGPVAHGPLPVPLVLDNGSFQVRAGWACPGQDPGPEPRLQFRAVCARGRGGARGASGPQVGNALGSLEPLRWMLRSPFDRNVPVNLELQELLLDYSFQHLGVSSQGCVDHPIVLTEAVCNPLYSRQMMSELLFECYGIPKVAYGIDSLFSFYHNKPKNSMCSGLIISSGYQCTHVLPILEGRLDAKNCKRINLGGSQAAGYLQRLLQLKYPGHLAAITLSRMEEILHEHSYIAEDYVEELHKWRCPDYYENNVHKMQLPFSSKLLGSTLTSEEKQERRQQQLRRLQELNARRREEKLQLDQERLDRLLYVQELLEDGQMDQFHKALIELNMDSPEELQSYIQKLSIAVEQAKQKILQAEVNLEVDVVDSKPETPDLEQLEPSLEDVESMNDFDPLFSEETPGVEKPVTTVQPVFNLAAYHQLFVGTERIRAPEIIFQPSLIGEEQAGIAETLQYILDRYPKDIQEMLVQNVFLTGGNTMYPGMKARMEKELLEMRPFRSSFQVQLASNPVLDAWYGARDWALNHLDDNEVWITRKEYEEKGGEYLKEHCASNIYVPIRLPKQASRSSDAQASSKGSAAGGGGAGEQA
UniProt Q9HCE1: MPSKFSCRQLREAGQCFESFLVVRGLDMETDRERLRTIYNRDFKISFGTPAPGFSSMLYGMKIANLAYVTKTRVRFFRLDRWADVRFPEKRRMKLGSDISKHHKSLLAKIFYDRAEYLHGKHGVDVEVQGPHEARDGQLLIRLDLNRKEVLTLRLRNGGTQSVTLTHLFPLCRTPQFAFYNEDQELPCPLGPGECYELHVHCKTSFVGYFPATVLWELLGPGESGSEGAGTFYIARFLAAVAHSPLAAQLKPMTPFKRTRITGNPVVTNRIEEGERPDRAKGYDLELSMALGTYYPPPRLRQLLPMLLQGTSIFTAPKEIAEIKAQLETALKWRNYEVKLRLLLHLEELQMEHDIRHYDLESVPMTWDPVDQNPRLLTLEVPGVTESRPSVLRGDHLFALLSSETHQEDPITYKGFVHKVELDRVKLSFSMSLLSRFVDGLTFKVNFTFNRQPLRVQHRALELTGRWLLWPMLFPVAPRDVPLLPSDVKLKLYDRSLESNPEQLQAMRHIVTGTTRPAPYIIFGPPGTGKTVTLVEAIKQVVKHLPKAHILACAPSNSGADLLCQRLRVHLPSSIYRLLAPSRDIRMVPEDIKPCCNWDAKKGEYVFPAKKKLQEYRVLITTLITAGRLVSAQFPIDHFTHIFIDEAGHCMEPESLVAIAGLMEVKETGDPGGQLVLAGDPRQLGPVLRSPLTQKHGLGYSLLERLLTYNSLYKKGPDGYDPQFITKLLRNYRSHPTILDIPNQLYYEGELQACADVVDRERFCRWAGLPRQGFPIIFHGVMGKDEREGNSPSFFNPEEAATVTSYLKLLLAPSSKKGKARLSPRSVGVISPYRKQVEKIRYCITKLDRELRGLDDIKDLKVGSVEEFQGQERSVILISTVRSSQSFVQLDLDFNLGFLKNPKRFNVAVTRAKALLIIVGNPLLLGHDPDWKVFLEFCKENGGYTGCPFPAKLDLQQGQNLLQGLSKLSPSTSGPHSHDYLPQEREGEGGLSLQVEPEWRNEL
UniProt Q9H816: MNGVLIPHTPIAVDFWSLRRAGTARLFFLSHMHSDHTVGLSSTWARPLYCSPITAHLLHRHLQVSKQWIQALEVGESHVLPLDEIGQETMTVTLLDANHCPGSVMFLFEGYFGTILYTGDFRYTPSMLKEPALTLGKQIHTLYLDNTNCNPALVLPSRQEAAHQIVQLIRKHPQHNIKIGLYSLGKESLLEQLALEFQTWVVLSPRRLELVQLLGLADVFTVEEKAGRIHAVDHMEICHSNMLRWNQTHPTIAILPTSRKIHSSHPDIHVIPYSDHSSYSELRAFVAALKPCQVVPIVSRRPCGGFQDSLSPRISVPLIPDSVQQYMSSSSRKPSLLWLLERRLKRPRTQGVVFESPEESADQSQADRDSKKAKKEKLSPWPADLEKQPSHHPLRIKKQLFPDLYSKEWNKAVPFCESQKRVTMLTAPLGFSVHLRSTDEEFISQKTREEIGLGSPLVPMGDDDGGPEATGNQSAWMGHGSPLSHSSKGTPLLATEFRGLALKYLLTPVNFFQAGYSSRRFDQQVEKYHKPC
UniProt Q9H900: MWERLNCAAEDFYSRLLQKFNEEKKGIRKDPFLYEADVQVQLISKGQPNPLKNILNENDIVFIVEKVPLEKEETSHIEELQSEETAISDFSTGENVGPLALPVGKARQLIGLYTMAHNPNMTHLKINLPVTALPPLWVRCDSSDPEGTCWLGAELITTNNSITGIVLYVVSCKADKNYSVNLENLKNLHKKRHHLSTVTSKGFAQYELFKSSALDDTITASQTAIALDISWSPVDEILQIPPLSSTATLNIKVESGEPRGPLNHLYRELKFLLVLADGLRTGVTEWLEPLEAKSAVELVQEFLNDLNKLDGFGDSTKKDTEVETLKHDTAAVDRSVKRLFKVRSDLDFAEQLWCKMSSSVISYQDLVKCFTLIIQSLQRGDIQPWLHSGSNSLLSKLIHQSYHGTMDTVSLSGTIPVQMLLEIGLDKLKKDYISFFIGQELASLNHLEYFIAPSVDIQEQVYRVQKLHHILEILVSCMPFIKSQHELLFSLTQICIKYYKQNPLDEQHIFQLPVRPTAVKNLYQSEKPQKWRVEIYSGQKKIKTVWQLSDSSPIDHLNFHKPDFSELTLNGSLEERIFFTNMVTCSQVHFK
UniProt Q9H6K1: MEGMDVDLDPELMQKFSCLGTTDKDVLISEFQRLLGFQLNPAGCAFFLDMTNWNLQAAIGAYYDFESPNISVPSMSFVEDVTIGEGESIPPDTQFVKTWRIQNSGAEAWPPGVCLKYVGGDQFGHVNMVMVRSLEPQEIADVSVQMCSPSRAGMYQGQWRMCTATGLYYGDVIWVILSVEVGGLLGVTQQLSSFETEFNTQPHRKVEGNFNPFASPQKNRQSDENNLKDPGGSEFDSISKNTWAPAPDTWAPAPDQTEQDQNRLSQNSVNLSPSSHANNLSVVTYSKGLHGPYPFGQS
UniProt Q9H8L6: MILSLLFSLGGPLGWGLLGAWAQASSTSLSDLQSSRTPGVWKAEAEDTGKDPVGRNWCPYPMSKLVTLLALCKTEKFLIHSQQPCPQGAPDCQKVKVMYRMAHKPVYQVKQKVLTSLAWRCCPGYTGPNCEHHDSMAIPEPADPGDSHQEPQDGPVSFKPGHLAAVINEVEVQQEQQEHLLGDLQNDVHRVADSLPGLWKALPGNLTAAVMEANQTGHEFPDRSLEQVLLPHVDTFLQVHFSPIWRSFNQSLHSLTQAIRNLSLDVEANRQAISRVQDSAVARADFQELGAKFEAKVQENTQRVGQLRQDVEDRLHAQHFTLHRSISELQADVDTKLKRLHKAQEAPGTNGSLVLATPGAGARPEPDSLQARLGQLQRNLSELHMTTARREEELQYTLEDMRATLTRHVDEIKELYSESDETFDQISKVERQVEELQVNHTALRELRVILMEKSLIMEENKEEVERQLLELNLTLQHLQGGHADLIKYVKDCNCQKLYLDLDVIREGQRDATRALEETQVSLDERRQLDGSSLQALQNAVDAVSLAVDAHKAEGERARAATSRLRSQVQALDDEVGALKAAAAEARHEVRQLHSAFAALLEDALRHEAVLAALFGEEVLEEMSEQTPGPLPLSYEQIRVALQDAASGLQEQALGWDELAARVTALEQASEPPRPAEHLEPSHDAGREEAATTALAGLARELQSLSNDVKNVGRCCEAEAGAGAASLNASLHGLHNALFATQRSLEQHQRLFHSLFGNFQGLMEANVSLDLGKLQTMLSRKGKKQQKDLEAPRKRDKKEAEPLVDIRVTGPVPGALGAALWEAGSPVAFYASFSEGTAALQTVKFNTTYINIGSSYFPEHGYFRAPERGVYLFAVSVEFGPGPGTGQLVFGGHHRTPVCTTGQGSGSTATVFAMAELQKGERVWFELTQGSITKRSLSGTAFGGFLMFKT
UniProt Q9HCD5: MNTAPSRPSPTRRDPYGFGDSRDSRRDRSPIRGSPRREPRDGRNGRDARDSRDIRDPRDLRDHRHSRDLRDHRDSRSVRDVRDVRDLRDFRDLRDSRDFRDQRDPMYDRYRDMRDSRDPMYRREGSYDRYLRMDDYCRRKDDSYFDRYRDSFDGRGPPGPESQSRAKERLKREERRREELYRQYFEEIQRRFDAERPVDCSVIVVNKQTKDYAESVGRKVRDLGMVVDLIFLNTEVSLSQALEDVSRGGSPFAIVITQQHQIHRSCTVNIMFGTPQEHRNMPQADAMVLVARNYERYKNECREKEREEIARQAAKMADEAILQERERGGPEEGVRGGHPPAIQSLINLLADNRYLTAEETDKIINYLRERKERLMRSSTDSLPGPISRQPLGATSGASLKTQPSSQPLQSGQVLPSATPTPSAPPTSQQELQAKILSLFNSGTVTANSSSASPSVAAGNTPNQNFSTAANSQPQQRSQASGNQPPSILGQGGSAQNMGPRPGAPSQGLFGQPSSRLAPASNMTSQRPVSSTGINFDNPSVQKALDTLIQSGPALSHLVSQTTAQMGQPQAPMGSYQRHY
UniProt Q9HCM7, whole entry: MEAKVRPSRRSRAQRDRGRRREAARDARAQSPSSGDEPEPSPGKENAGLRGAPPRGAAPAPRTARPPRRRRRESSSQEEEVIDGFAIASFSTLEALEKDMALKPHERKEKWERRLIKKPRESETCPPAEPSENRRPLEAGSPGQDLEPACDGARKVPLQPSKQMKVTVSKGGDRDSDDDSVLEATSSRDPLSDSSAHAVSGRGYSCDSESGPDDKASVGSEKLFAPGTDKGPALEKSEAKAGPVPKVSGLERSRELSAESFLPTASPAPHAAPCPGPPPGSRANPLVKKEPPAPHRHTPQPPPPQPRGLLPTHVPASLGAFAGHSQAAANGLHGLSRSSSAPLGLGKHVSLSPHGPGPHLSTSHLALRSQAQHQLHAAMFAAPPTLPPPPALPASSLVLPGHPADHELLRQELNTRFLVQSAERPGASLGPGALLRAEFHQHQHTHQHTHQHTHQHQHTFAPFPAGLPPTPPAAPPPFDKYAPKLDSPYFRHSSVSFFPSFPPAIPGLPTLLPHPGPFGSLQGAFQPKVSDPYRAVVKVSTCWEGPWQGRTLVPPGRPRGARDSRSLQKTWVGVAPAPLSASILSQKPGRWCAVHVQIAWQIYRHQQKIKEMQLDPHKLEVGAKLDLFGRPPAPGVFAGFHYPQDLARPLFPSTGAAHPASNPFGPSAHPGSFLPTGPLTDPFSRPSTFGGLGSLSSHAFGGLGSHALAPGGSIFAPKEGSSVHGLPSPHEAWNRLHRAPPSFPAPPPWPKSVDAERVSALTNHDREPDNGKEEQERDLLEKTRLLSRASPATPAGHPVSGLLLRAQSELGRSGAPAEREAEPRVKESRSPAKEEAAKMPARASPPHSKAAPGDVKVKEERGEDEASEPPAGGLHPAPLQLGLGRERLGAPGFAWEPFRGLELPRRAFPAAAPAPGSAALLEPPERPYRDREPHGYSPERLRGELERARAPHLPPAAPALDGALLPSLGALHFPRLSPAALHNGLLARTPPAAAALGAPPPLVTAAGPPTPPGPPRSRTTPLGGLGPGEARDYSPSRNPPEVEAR
UniProt Q9HC78: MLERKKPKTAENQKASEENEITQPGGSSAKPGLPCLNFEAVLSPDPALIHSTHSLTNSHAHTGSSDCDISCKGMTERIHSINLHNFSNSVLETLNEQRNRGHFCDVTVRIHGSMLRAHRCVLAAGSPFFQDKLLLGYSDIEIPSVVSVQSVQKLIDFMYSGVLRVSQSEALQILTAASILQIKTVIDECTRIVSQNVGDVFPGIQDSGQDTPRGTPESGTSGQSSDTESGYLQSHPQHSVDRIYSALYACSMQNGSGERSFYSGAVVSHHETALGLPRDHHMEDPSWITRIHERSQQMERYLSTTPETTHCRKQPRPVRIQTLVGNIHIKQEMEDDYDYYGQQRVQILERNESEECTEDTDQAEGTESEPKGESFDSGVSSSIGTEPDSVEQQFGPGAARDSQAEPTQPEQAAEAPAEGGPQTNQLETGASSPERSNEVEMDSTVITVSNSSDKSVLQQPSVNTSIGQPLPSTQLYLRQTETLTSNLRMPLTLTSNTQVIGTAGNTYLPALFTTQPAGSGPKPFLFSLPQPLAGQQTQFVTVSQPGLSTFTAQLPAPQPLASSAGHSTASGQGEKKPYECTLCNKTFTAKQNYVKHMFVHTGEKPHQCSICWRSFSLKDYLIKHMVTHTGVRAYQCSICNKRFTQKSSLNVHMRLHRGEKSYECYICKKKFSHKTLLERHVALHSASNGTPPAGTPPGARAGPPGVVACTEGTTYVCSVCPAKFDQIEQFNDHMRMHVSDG

This is one part of the list. Small differences around the control level are noise.

Compound in the experiment: CN[C@@H]1C[C@H]2O[C@@](C)([C@@H]1OC)n1c3ccccc3c3c4c(c5c6ccccc6n2c5c31)C(=O)NC4 [staurosporine]
The experiment is described as follows: log2 fold change of tryptic peptide abundance, ligand vs vehicle (limited proteolysis) (log2 ratio); higher = more trypsin-susceptible (destabilized). The following applies: ligand concentration: 20 uM; sample: K562 cleared lysate; digestion: 4 min, 22 C (HT-PELSA RT4min, Orbitrap Astral).
Take “GEMIN7 (peptide sequence: MQTPVNIPVPVLRLPR, peptide start residue: 1) (UniProt Q9H840)”: the log2 fold change was -0.0462.

Take “GPCPD1 (peptide sequence: SCLCPTVSR, peptide start residue: 639) (UniProt Q9NPB8)”: the log2 fold change is 0.23.

“ACTR5 (peptide sequence: LLGSTLTSEEKQER, peptide start residue: 284) (UniProt Q9H9F9)”: the log2 fold change was 0.0714.

With “MOV10 (peptide sequence: LRVHLPSSIYR, peptide start residue: 567) (UniProt Q9HCE1)”, the log2 fold change is 0.662.

On to “UniProt Q9H816 (peptide sequence: AFVAALKPCQVVPIVSR, peptide start residue: 284)”, for which the log2 fold change amounted to 0.425.

Regarding “CBX8 (peptide sequence: HGSGPPSSGGGLYR, peptide start residue: 309) (UniProt Q9HC52)”, the log2 fold change is -0.384.

In the case of “ISYNA1 (peptide sequence: VLDWGLQEQLWPHMEALRPR, peptide start residue: 156) (UniProt Q9NPH2)”, the log2 fold change is 0.196.

For “FN3KRP (peptide sequence: SYDTDQGR, peptide start residue: 30) (UniProt Q9HA64)”, the log2 fold change is -0.376.

Take “COPRS (peptide sequence: GTQSIPNDSPAR, peptide start residue: 58) (UniProt Q9NQ92)”: the log2 fold change is -0.0593.

Turning to “NT5DC2 (peptide sequence: TGAIIPELER, peptide start residue: 375) (UniProt Q9H857)”, the log2 fold change is -0.568.

Turning to “TFB2M (peptide sequence: LYLIQMIPR, peptide start residue: 296) (UniProt Q9H5Q4)”, the log2 fold change stood at 0.378.

Turning to “MLXIP (peptide sequence: AWYMQYLEK, peptide start residue: 169) (UniProt Q9HAP2)”, the log2 fold change is -0.435.

Regarding “ZWILCH (peptide sequence: HHLSTVTSK, peptide start residue: 193) (UniProt Q9H900)”, the log2 fold change worked out at 1.37.

Turning to “UniProt Q9H9D4 (peptide sequence: GTQPHGYLAK, peptide start residue: 298)”, the log2 fold change came out at 0.447.

Take “UniProt Q9NPJ3 (peptide sequence: ITLVSAAPGK, peptide start residue: 28)”: the log2 fold change was 0.372.

Turning to “HEATR1 (peptide sequence: HLEAILTK, peptide start residue: 378) (UniProt Q9H583)”, the log2 fold change is 0.797.

As for “UniProt Q9H8E8 (peptide sequence: RLEACPGAVAMTPEAR, peptide start residue: 474)”, the log2 fold change came to 0.23.

Regarding “GOLPH3L (peptide sequence: GGILIELAMR, peptide start residue: 77) (UniProt Q9H4A5)”, the log2 fold change was -0.195.

In the case of “PARVB (peptide sequence: TMIDPTSKEDPKFK, peptide start residue: 74) (UniProt Q9HBI1)”, the log2 fold change came to 0.354.

Consider “UniProt Q9H6K1 (peptide sequence: GLHGPYPFGQS, peptide start residue: 288)”, for which the log2 fold change was determined as 0.036.

Consider “UniProt Q9H8L6 (peptide sequence: PEPDSLQAR, peptide start residue: 364)”, for which the log2 fold change is -0.0382.

With “UniProt Q9H6A9 (peptide sequence: GELQEEGAVGGAAEETGRR, peptide start residue: 558)”, the log2 fold change is -0.00167.

In the case of “EXOSC4 (peptide sequence: VLEAAAQAAR, peptide start residue: 213) (UniProt Q9NPD3)”, the log2 fold change was 0.377.

“MARCHF7 (peptide sequence: IASSMSSTFFSR, peptide start residue: 286) (UniProt Q9H992)”: the log2 fold change worked out at 0.822.

“NCOA5 (peptide sequence: YLTAEETDKIINYLR, peptide start residue: 354) (UniProt Q9HCD5)”: the log2 fold change amounted to 0.262.

Take “UniProt Q9H6Q4 (peptide sequence: ELFGIHVAEVTYKPLR, peptide start residue: 330)”: the log2 fold change was -0.272.

As to “ANKZF1 (peptide sequence: KKPTEEEIR, peptide start residue: 374) (UniProt Q9H8Y5)”, the log2 fold change stood at 0.218.

For “UniProt Q9HCM7 (peptide sequence: KVPLQPSK, peptide start residue: 155)”, the log2 fold change was found to be 0.394.

In the case of “UniProt Q9HC78 (peptide sequence: KPKTAENQK, peptide start residue: 6)”, the log2 fold change is -0.0361.
